Measurements from PubChem BioAssay AID493014 (National Center for Advancing Translational Sciences (NCATS), 2011).
Some of the results follow. These are further read-outs of the screen, such as a control signal, another cell line or another target. No call is given for them. Compounds called inactive in the main read-out are mostly missing here. Potencies come from curve fits of mixed quality, noted in brackets.

Experiment: qHTS Assay to Find Inhibitors of Chronic Active B-Cell Receptor Signaling
Settings: ABC-DLBCL IkBa-CBG/CBR reporter, luminescence ratio (green luciferase fused to IkBa over red control in TMD8 lymphoma cells), 4 h
Procedure, shortened: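 Cell line TMD8 (human ABC DLBCL), stably expressing tet-inducible CBG68-IkBa fusion and CBR; IMDM/0.5% FBS; cpd up to 46 uM; dox induction, 4 h, 37C/5% CO2; dual luminescence; green/red ratio; MG132 control.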

[1] = measured here: CBR red luminescence, cell number
[2] = measured here: IkBa-CBG green luminescence

## O=C(CCl)N1N=C(c2cccs2)CC1c1ccco1 (centres undefined)
[1]
  AC50: 10 µM [falling, partial curve, poor fit]
[2]
  AC50: 8.91 µM [rising, partial curve, poor fit]

## COc1cccc([C@@H]2Oc3ccc(Br)cc3C(=O)[C@H]2OC(=O)NC2CCCC2)c1
[1]
  AC50: 29.1 µM [falling, single point]

## COC(=O)c1ccc2c(=O)n(Cc3ccc(C(=O)NC(C)C)cc3)c(=S)[nH]c2c1
[1]
  AC50: 1.58 µM [falling, partial curve, poor fit]

## O=C(CSCc1ccc(C(=O)O)cc1)Nc1ccccc1
[1]
  AC50: 1.26 µM [rising, full curve]

## CNc1nc(NCCOC23CC4CC(CC(C4)C2)C3)nc(OCC(F)(F)F)n1
[1]
  AC50: 17.8 µM [rising, partial curve, poor fit]

## Cc1ccc2cc(CN(CCCO)S(=O)(=O)c3cccc4nsnc34)c(=O)[nH]c2c1C
[1]
  AC50: 12.6 µM [rising, partial curve, poor fit]

## O=C(/C=C/c1ccncc1)c1ccc2c(c1)OCCO2
[1]
  AC50: 14.1 µM [falling, partial curve, poor fit]
[2]
  AC50: 12.6 µM [rising, partial curve, poor fit]

## O=C(Nc1nc2ccccc2[nH]1)C1CCC1
[1]
  AC50: 11.2 µM [falling, partial curve]

## NC1=NC(=O)/C(=C/c2ccsc2)S1
[1]
  AC50: 20 µM [falling, single point]

## C=CCNc1nc(Nc2ccc([N+](=O)[O-])cc2)nc(OC)n1
[1]
  AC50: 11.2 µM [rising, partial curve, poor fit]

## COc1ccc(C(=O)/C=C/c2ccccc2)c(OC)c1
[1]
  AC50: 17.8 µM [falling, single point]

## CCc1ccc(NC(=O)c2sccc2-n2cccc2)cc1
[1]
  AC50: 20.6 µM [rising, single point]

## Cc1ccccc1C(=O)NNc1ncnc2c1cnn2-c1cccc(Cl)c1
[1]
  AC50: 35.5 µM [falling, single point]

## O=C(N/N=C1\CCc2ccccc21)c1ccc(O)cc1
[1]
  AC50: 0.794 µM [falling, full curve]

## O=C(COc1ccccc1F)NC1CCN(Cc2ccccc2)CC1
[1]
  AC50: 32.6 µM [rising, partial curve, poor fit]

## C[C@@H](C(=O)Nc1nc(-c2ccccn2)cs1)N1C(=O)C2CCCCC2C1=O (some centres undefined)
[1]
  AC50: 1.46 µM [falling, partial curve, poor fit]

## CCOC(=O)C1CCN(C(=O)c2cc3cc(Cl)ccc3[nH]2)CC1
[1]
  AC50: 2.24 µM [falling, partial curve, poor fit]

## COc1ccc(OC)c(-c2nc3c(C)n[nH]c(=O)c3[nH]2)c1
[1]
  AC50: 0.517 µM [falling, full curve, poor fit]
[2]
  AC50: 0.58 µM [rising, full curve, poor fit]

## O=C(NC(NC(=S)Nc1ccccc1Cl)C(Cl)(Cl)Cl)c1cccc(Cl)c1 (centres undefined)
[1]
  AC50: 29.1 µM [falling, single point]
[2]
  AC50: 20.6 µM [rising, partial curve, poor fit]

## O=C(Nc1cccc(NC(=O)c2cccs2)c1)c1ccco1
[1]
  AC50: 5.17 µM [falling, partial curve]

## CCOc1ccc(NC(=O)NCc2ccco2)cc1
[1]
  AC50: 8.91 µM [falling, partial curve, poor fit]

## COC(=O)c1ccccc1NC(=O)CC(=O)Nc1ccccc1C(=O)OC
[1]
  AC50: 0.447 µM [rising, full curve, poor fit]

## COc1ccc(S(=O)(=O)NC2CCCCC2)c(C)c1C
[1]
  AC50: 0.82 µM [falling, partial curve, poor fit]

## Cc1ccc(CNC(=O)Cn2cccc2)cc1
[1]
  AC50: 5.62 µM [falling, single point]

## CN1CCN(C(c2ccc(C(F)(F)F)cc2)c2ccc3cccnc3c2O)CC1 (centres undefined)
[1]
  AC50: 35.5 µM [falling, single point]

## O=C(NCc1ccc2c(c1)OCO2)C1CCCCC1
[1]
  AC50: 11.2 µM [rising, partial curve, poor fit]

## COc1ccc(NC(=S)NNC(=O)Cn2nc([N+](=O)[O-])cc2C)cc1
[1]
  AC50: 22.4 µM [falling, single point]
[2]
  AC50: 35.5 µM [rising, partial curve, poor fit]

## CN(Cc1cc(=O)[nH]c2ccccc12)C(=O)c1ccccc1
[1]
  AC50: 2.24 µM [falling, full curve]

## Cc1ccc(S(=O)(=O)Nc2ccccc2CNc2ncc(Br)cc2Br)cc1
[1]
  AC50: 11.6 µM [falling, partial curve, poor fit]

## CCN(CC)C(=O)CC(c1ccc(OC)cc1)c1c(OC)cc(OC)c2ccc(=O)oc12 (centres undefined)
[1]
  AC50: 15.8 µM [rising, partial curve, poor fit]

## Cc1ccc(OCC(O)CN2C(=O)NC(C)(C)C2=O)c(C)c1 (centres undefined)
[2]
  AC50: 20 µM [falling, single point]

## CCCCc1nn(-c2cc(Cl)ccc2OC)c2c1C(=O)CCC2
[1]
  AC50: 32.6 µM [falling, single point]

## COc1ccccc1NC(=O)Nc1nc(CC(=O)Nc2cc(F)ccc2F)cs1
[1]
  AC50: 16.4 µM [falling, single point]

## CC(=O)N1CCC(C(=O)Nc2nc(-c3ccccc3)ns2)CC1
[1]
  AC50: 16.4 µM [falling, partial curve, poor fit]
[2]
  AC50: 3.66 µM [rising, full curve]

## CCS(=O)(=O)c1ccc2oc(Nc3ccc(OC)cc3)nc2c1
[1]
  AC50: 3.16 µM [rising, full curve, poor fit]

## Cc1ccc2nc(NC(=O)CSc3ncnc4c3oc3ccccc34)sc2c1
[1]
  AC50: 20.6 µM [falling, partial curve]

## COc1ccc(N2CCN(C(=O)c3c(-c4ccccc4)noc3C)CC2)cc1
[1]
  AC50: 6.51 µM [falling, single point]

## COc1ccccc1N(CC(=O)N/N=C/c1c(O)ccc2ccccc12)S(C)(=O)=O
[1]
  AC50: 11.6 µM [falling, partial curve]

## Cc1c(Cl)cccc1NC(=O)Nn1cnnc1
[1]
  AC50: 35.5 µM [falling, single point]

## Cc1nccc(-c2cccc(NC(=O)c3ccccc3Cl)c2)n1
[1]
  AC50: 5.62 µM [falling, single point]

## CCOC(=O)c1oc2ccccc2c1N
[1]
  AC50: 35.5 µM [rising, single point]

## O=C(c1cc(Cl)ccc1Cl)N1CCN(c2ccccn2)CC1
[1]
  AC50: 7.31 µM [falling, partial curve, poor fit]

## Fc1ccc2[nH]c3c(N4CCN(c5ccccc5)CC4)ncnc3c2c1
[1]
  AC50: 0.82 µM [falling, full curve, poor fit]

## Cc1ccc(C(=O)N/C(=C\c2cccs2)C(=O)N2CCCCCC2)cc1
[1]
  AC50: 3.55 µM [rising, partial curve, poor fit]

## O=C(CSc1nc2ccccc2s1)NCCOc1ccccc1
[1]
  AC50: 8.2 µM [rising, partial curve]

## Cc1cccc(OCC(=O)N2CCN(c3nnc(-c4ccccc4)c4ccccc34)CC2)c1
[1]
  AC50: 3.98 µM [falling, full curve]

## O=C(Nc1cccnc1)c1cccc(-c2cc3ccccc3oc2=O)c1
[1]
  AC50: 0.794 µM [rising, full curve, poor fit]

## Cc1onc(-c2c(F)cccc2Cl)c1C(=O)OCC(=O)NC1CC1
[1]
  AC50: 12.6 µM [rising, partial curve]

## CCc1nc(N)c(C#N)c(-c2ccncc2)c1C
[1]
  AC50: 20 µM [falling, partial curve, poor fit]

## CCc1cc(=O)oc2c(C)c(OCC(=O)N3CCCc4ccccc43)ccc12
[1]
  AC50: 29.1 µM [falling, single point]

## CCOc1ccc(NC(=O)c2cc3ccccc3cc2O)cc1
[1]
  AC50: 35.5 µM [falling, single point]

## Cc1cc(NC(=O)CSc2nc3cc4c(cc3c(=O)n2CCc2ccccc2)OCO4)no1
[1]
  AC50: 29.1 µM [rising, single point]

## CCn1c(=O)cc(OCC(=O)NCCc2ccc(OC)c(OC)c2)c2ccccc21
[1]
  AC50: 0.501 µM [rising, full curve, poor fit]

## Nc1c(C(=O)Nc2ccccc2)nnn1-c1ccc2c(c1)OCCO2
[1]
  AC50: 7.08 µM [falling, partial curve]

## COc1ccc(C(=O)N/N=C(\C)CC(=O)Nc2cccc(C(F)(F)F)c2)cc1
[1]
  AC50: 3.98 µM [falling, full curve]

## N#CC(c1ccc(Cl)cc1)c1ccc2c(C(F)(F)F)cc(C(F)(F)F)nc2n1 (centres undefined)
[1]
  AC50: 32.6 µM [falling, single point]

## COc1cccc(-c2ccc3ncnc(NCc4cccc(F)c4)c3c2)c1
[1]
  AC50: 29.1 µM [falling, single point]

## CCC(=O)NC(=S)Nc1ccc(OC)cc1OC
[1]
  AC50: 32.6 µM [falling, single point]

## CC(C)n1cnc2c(Nc3cccc(Cl)c3)nc(NCCCO)nc21
[1]
  AC50: 14.1 µM [falling, single point]

## CCOC(=O)Cc1csc2nc(-c3ccccc3)nn12
[2]
  AC50: 2.82 µM [rising, partial curve, poor fit]

## O=[N+]([O-])c1ccc(-c2nn(-c3ccccc3)cc2/C=N/n2c(-c3ccncc3)n[nH]c2=S)cc1
[1]
  AC50: 7.08 µM [rising, partial curve, poor fit]

## CCOc1ccc(NC(=O)C2C(c3ccccc3)C2(Cl)Cl)cc1 (centres undefined)
[1]
  AC50: 35.5 µM [falling, single point]

## Cc1ccc(CCNC(=O)c2cc(S(=O)(=O)N3CCCCC3)c[nH]2)cc1
[1]
  AC50: 35.5 µM [falling, single point]
